Four sequences from US20220403391 can be followed below.

For at least one entry, the source does not settle the construct or the ends of the probe. Results from cells or extracts need not show a direct contact. Weaker means in comparison with the reference protein, sequence or condition of that experiment.

This data set concerns CD3 (T-cell receptor CD3 complex) (Homo sapiens). The experiment in a line: flow cytometry. As to conditions: dose-dependent on Jurkat, signal below anti-CD3 monomer, Ramos binding strongly reduced, 37 C, protein on the cell surface, protein details: endogenous on Jurkat cells (ATCC TIB-152), label: 5'-biotin-TEG.
The mark [1] stands for this setting: 2'-F RNA in A10 part, triazole click linkage between A10 3' end and DNA 5' end.
Setting [2] is: 2'-F RNA, triazole click linkage between A10 3' end and partner 5' end.

For the sequence “GGGAGGACGAUGCGGAUCAGCCAUGUUUACGUCACUCCUTACCGCGGGGATTGGCTCCGGGCCTGGCGTCGTAATCTGA [A10xCELTIC_19s]”, the binding result under setting [1] is given as “binds more weakly”.

With “GGGAGGACGAUGCGGAUCAGCCAUGUUUACGUCACUCCUTTTCCGGGTGGGGGTTTGGCACCGGGCCTGGCGCAGGGATTCG [A10xCELTIC_1s]”, under setting [1], the binding result is “binds more weakly”.

On to “GGGAGGACGAUGCGGAUCAGCCAUGUUUACGUCACUCCUUAUAGACUUUAAUGUCUCAUUUUCGCAGCGAUUCUUGUUUAUUUAACAUA [A10xARACD3-3700006]”, for which the binding result under setting [2] is listed as “binds more weakly”.

On to “GGGAGGACGAUGCGGAUCAGCCAUGUUUACGUCACUCCUUCUAAGCAAUAUUGUUUGCUUUUGCAGCGAUUCUGUUUCGAUAUAUUA [A10xARACD3-0010209]”, for which the binding result under setting [2] is given as “binds more weakly”.
